{"sequences": {"note": "Chains of the proteins cited; added tags and fusions are not shown.", "UniProt Q9WTU0": "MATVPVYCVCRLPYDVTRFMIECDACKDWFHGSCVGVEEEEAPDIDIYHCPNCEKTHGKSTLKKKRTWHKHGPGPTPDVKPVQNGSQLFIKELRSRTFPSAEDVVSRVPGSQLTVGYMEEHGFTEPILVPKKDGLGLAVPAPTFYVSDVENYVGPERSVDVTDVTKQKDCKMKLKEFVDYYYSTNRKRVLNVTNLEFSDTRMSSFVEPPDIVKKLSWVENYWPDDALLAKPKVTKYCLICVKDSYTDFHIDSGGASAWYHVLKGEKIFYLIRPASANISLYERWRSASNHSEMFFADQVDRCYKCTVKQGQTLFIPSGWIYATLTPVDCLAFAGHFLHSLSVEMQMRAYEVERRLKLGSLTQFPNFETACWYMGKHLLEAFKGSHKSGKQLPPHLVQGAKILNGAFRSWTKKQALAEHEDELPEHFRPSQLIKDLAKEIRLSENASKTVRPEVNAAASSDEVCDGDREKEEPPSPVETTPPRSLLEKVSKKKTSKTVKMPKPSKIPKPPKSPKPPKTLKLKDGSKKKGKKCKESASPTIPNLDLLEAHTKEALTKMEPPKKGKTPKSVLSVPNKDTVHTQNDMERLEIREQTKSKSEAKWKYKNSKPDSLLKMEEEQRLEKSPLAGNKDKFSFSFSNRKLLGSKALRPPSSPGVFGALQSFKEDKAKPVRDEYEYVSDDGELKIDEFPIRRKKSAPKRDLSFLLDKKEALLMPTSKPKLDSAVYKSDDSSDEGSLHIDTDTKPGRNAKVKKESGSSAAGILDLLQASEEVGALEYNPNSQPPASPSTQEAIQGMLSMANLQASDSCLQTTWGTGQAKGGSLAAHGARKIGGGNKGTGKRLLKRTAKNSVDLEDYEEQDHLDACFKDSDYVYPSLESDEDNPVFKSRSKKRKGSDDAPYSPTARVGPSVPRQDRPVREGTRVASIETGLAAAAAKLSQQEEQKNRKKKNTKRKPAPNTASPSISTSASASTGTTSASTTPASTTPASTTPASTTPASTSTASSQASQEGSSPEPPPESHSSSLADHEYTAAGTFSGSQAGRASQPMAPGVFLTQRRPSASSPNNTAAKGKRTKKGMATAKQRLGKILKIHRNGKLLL"}, "source": "paper PMC5974278", "molecular_target": "T1, ChREBP used as bait for mass spectrometry in hepatocytes (UniProt Q99MZ3)", "T1 sequence": "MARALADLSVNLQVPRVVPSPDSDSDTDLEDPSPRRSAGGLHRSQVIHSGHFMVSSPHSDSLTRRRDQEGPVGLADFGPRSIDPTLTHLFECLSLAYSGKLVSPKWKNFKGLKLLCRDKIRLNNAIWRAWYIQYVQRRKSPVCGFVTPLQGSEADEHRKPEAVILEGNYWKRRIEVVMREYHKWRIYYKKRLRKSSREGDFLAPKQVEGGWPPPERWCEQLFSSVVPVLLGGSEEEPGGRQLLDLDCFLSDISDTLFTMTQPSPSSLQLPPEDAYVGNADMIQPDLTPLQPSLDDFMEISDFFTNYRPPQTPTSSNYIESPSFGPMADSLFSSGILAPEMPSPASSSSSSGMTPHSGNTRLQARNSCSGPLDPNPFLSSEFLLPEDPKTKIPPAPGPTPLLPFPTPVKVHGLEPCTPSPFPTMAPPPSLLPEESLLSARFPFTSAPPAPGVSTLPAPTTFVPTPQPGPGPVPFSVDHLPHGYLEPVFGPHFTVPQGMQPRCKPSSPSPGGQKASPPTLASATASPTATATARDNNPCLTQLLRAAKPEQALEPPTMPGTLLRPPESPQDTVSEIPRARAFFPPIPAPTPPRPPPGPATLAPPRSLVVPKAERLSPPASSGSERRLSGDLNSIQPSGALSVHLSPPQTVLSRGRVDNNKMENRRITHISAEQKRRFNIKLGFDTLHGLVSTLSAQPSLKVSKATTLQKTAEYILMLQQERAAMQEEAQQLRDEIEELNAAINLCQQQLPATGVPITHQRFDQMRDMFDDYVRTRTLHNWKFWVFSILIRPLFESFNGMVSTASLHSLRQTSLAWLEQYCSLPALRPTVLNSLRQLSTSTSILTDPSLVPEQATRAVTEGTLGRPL", "assay": "affinity purification with mass spectrometry; identification of transcriptional co-regulators of ChREBP in hepatocytes; Phf2 purified with ChREBP", "note": "No constants are given. Whether binding was seen depends on the method and setting. In cells and extracts the contact can be indirect. These calls come from enrichment with a bait or labelling near it, and not all partners need be listed."}
{"substance": "endogenous Phf2 (mouse liver / hepatocytes) (from UniProt Q9WTU0 1-1096) (enzyme)", "values": [{"measurement": "binding", "result": "binds"}]}
